Results as given in the supplement of paper PMC10849652.
This is one part of the list.

The chains behind the UniProt entries cited, without tags or fusion partners. Where a name states a change or a piece, a line headed by the entry shows the natural chain unless it says otherwise.
UniProt O43439: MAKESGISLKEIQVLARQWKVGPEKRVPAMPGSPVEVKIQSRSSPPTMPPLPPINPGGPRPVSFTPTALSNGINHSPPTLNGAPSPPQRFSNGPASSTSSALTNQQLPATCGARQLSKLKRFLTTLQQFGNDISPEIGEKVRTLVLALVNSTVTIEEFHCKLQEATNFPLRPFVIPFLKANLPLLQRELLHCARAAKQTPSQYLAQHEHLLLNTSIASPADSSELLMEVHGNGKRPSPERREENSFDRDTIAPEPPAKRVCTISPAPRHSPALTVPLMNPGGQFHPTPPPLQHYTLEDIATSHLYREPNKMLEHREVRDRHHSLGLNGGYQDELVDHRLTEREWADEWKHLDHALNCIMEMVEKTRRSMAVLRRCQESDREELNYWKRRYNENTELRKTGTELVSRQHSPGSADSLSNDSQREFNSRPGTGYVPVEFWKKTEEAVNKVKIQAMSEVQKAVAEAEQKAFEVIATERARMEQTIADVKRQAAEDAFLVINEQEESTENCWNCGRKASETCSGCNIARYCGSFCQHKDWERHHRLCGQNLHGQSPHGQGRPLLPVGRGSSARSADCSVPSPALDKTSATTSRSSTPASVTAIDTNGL
UniProt P30305: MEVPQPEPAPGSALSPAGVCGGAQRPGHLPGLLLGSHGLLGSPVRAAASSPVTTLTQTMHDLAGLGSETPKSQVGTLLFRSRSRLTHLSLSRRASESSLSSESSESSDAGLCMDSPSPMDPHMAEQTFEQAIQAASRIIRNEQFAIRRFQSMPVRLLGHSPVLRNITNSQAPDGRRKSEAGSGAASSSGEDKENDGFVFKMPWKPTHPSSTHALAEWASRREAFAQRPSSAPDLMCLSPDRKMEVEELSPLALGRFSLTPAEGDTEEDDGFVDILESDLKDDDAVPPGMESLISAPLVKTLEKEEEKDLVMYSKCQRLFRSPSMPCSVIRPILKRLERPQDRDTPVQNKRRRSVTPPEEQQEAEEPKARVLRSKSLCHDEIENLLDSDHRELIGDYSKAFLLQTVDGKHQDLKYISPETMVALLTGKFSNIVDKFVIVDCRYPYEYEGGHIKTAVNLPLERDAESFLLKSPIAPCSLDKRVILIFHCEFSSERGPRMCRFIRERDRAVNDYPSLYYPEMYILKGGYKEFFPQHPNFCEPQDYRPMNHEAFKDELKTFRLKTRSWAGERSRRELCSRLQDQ
UniProt P24864, whole entry, looked up: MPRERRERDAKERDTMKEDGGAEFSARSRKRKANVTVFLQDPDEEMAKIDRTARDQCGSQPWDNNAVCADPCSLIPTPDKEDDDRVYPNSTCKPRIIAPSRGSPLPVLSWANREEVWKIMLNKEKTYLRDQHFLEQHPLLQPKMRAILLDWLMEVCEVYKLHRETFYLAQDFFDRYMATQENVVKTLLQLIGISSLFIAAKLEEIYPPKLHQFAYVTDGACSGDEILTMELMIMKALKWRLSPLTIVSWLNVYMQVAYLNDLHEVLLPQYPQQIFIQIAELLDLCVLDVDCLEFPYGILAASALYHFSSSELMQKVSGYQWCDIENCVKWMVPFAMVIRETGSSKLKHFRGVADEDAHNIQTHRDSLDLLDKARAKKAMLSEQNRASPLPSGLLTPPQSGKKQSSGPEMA
UniProt P30307: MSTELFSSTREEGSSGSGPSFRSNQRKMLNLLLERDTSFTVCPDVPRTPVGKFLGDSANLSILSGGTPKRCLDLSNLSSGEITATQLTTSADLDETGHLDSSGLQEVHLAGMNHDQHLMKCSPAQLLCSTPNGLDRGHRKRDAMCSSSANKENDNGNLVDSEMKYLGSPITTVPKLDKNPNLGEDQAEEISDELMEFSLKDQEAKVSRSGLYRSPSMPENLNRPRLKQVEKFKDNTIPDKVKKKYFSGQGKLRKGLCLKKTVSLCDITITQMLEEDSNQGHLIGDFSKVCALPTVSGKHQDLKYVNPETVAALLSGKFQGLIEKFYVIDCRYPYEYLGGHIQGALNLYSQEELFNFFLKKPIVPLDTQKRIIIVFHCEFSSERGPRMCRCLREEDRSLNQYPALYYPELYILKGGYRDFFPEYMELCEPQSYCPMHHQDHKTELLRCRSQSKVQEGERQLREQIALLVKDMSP
UniProt Q04900: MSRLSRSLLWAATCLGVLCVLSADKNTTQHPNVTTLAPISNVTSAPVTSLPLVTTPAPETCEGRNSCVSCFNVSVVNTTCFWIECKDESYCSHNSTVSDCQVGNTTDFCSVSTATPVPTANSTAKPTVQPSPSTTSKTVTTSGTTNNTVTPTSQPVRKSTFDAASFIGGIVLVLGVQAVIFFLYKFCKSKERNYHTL
UniProt A2RUB6: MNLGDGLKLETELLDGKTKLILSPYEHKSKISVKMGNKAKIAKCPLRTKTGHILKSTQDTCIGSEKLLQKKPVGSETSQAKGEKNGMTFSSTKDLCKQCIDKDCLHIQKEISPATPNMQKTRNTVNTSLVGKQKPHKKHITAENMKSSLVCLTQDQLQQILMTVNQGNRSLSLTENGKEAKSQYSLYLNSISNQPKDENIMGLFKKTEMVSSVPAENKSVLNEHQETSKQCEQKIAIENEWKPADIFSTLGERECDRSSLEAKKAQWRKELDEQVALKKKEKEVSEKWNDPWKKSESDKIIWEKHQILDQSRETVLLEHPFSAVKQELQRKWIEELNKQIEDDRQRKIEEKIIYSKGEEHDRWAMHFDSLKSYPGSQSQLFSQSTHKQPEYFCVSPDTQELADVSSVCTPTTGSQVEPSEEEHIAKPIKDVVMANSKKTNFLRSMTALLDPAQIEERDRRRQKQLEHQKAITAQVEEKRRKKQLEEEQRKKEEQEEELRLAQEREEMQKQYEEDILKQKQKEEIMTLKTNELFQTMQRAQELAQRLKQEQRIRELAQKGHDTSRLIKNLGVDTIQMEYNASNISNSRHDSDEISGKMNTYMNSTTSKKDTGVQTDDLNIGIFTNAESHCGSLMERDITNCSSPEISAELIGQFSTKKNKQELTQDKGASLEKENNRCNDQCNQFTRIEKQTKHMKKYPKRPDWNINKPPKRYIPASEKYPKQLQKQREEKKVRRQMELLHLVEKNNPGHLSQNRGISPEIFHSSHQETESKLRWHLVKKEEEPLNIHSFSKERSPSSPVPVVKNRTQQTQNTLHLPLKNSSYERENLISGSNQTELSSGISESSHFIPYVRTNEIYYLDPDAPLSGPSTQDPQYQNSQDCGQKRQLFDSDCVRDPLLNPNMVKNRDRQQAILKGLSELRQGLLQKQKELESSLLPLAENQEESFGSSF
UniProt P16070: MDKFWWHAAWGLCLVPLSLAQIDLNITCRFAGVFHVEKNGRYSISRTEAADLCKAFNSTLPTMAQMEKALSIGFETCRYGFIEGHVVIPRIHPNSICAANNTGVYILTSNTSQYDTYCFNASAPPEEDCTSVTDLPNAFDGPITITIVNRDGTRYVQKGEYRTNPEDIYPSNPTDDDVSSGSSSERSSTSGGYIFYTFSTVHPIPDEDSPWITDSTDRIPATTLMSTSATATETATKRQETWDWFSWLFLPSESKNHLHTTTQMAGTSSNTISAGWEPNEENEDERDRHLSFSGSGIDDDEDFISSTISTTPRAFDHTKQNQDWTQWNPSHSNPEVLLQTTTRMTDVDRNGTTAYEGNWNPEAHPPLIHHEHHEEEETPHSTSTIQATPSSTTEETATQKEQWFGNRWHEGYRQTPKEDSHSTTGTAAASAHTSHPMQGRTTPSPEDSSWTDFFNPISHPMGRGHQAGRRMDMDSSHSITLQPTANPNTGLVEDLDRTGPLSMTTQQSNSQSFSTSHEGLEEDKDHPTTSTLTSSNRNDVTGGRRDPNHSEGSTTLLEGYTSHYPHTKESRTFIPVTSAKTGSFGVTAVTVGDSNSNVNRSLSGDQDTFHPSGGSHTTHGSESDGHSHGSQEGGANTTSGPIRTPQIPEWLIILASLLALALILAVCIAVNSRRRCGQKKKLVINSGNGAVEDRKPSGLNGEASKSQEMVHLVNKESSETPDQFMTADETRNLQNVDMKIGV
UniProt P30279, whole entry, looked up: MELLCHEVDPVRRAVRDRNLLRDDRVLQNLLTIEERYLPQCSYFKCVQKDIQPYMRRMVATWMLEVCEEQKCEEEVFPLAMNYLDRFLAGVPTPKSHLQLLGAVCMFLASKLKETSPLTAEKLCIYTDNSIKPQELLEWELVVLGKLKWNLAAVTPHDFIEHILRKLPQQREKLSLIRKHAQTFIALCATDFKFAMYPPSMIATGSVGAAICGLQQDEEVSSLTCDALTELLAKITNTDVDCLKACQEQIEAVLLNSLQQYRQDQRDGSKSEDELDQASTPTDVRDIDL
UniProt O60583: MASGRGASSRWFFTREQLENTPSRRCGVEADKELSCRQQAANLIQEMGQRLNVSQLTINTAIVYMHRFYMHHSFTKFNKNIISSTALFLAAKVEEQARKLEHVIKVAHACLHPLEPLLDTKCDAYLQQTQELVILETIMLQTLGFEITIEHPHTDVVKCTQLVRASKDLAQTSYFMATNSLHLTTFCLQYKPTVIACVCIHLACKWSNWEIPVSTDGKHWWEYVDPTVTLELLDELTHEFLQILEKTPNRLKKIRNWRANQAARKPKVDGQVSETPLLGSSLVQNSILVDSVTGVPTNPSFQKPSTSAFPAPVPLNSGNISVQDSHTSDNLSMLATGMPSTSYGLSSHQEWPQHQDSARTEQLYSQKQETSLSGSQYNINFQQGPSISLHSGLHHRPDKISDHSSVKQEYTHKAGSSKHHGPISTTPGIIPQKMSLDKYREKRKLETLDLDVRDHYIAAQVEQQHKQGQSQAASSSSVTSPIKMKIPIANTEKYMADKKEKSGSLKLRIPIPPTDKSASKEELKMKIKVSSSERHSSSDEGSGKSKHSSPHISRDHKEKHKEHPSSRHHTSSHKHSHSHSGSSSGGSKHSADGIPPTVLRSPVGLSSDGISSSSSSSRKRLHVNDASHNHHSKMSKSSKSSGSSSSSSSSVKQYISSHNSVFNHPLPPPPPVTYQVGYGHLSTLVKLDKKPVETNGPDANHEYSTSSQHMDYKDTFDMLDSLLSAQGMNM
UniProt Q96A19: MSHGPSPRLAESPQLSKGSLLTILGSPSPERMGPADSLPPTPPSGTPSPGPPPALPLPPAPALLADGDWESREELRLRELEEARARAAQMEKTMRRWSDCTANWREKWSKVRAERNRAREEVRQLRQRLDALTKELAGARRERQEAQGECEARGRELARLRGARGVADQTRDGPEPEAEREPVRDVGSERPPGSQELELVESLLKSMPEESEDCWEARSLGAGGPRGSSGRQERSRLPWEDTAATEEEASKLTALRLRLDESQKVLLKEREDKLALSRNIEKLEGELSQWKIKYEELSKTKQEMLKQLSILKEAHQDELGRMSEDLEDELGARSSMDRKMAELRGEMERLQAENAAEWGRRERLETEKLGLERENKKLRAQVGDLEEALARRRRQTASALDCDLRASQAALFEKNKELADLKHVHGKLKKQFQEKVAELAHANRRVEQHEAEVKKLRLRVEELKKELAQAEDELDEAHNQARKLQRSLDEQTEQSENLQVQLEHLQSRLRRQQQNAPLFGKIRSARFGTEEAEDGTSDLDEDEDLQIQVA
UniProt O14936: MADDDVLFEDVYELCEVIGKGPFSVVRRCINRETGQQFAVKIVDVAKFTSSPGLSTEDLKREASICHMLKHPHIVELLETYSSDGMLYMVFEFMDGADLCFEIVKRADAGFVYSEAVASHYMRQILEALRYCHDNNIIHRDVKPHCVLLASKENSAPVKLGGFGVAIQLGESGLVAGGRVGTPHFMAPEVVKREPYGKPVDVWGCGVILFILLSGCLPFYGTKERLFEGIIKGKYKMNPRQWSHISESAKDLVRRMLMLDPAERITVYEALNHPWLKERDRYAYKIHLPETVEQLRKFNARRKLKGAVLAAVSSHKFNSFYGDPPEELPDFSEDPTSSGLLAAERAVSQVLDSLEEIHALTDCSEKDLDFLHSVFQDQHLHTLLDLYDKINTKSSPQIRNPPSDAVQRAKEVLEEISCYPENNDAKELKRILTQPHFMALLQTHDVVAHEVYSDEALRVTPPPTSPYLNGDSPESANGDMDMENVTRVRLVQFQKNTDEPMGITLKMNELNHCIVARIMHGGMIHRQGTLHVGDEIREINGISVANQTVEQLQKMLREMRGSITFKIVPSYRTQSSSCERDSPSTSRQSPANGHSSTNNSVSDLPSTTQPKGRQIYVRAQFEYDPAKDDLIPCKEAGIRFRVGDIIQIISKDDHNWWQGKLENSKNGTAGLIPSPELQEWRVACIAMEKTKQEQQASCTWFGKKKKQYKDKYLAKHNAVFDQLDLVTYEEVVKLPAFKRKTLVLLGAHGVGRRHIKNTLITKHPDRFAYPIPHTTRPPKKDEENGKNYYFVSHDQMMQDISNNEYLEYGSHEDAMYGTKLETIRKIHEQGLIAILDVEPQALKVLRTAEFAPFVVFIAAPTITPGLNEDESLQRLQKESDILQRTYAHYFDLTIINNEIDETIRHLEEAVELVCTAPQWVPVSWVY

Key:
Experiment in all cases: log2 fold change, soluble protein after heating vs DMSO (PISA); higher = thermal stabilisation; K562 cells, 10 uM, 30 min; active = over 0.2 and 3.5 SD of the protein, either way, in both replicates (recomputed)
[1] = compound: C[C@@H]1COCCN1C2=NC(=NC(=C2)C3(CC3)S(=O)(=O)C)C4=C5C=CNC5=CC=C4
In short: (§1)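 K562 cells at 2×10^6 cells/mL were treated with 10 μM compound for 30 min. Aliquots were heated for 3 min across 48°C-58°C, pooled, and extracted in PBS with 0.5% NP-40 at 4°C; soluble protein was the supernatant after 21,000xg for 90 min. Soluble protein was quantified by TMTpro 16plex LC-MS/MS with channel sums equalised, and reported as log2 fold change in thermal stability against DMSO controls, with values from duplicates.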

gandotinib = compound: Cc1cc(Nc2cc(CN3CCOCC3)c3nc(C)c(Cc4ccc(Cl)cc4F)n3n2)n[nH]1 [gandotinib]
In short: as §1

[2] = compound: Cc1cc(SCc2sc(-c3ccc(C(F)(F)F)cc3)nc2C)ccc1OCC(=O)O
In short: as §1

[3] = compound: CS(=O)(=O)c1ccc(-c2cnc(N)c(C(=O)Nc3ccccc3)n2)cc1
In short: as §1

[4] = compound: C[C@H](C1=CC=C(C=C1)C(=O)NC2=C3C=CNC3=NC=C2)N
In short: as §1

duvelisib = compound: C[C@H](Nc1ncnc2nc[nH]c12)c1cc2cccc(Cl)c2c(=O)n1-c1ccccc1 [duvelisib]
In short: as §1

tozasertib = compound: Cc1cc(Nc2cc(N3CCN(C)CC3)nc(Sc3ccc(NC(=O)C4CC4)cc3)n2)n[nH]1 [tozasertib]
In short: as §1

ispinesib = compound: Cc1ccc(C(=O)N(CCCN)[C@@H](c2nc3cc(Cl)ccc3c(=O)n2Cc2ccccc2)C(C)C)cc1 [ispinesib]
In short: as §1

crizotinib = compound: C[C@@H](Oc1cc(-c2cnn(C3CCNCC3)c2)cnc1N)c1c(Cl)ccc(F)c1Cl [crizotinib]
In short: as §1

doramapimod = compound: Cc1ccc(-n2nc(C(C)(C)C)cc2NC(=O)Nc2ccc(OCCN3CCOCC3)c3ccccc23)cc1 [doramapimod]
In short: as §1

Measured: log2 fold change

CASP7 isoform 3 (UniProt P55210)
inactive: [1] 0.3 | gandotinib -0.155 | [2] -0.271

CD80 (UniProt P33681)
inactive: [3] 0.013 | [4] -0.126 | duvelisib -0.028 | gandotinib -0.313 | tozasertib -0.052 | [2] 0.022 | ispinesib 0.044

CBFA2T2 isoform 4 (UniProt O43439)
inactive: gandotinib 0.047

CBFB (UniProt Q13951)
inactive: [4] 0.015 | duvelisib 0.202 | tozasertib 0.088 | [2] 0.071 | ispinesib 0.036

CCNE2 (UniProt O96020)
inactive: crizotinib -0.305 | duvelisib 0.068 | [2] -0.039 | doramapimod -0.027

CDC25B isoform 4 (UniProt P30305)
inactive: [3] -0.104 | [1] -0.216 | [4] -0.057 | gandotinib 0.122 | doramapimod 0.132 | ispinesib 0.019

CD84 (UniProt Q9UIB8)
inactive: [3] 0.049 | [1] -0.201 | [4] -0.149 | [2] 0.056

CCDC187, A0A1W2PQX5
inactive: [1] -0.042 | gandotinib -0.352 | ispinesib 0.274

CCNE1 (UniProt P24864)
inactive: [1] -0.273 | duvelisib 0.204 | gandotinib 0.004 | tozasertib 0.133 | [2] -0.097 | ispinesib 0.102

CDC27 (UniProt G5EA36)
inactive: [1] -0.131 | [4] 0.418 | tozasertib -0.013 | ispinesib 0.144

CD33 (UniProt P20138)
inactive: [3] -0.16 | [1] -0.023 | duvelisib 0.134 | gandotinib 0.123 | tozasertib -0.041 | [2] -0.131 | ispinesib 0.097

CD2BP2 (UniProt O95400)
inactive: crizotinib 0.04 | [1] -0.157 | duvelisib 0.065 | tozasertib 0.16 | [2] -0.068 | doramapimod 0.012

CDC25C (UniProt P30307)
inactive: [1] 0.091 | [4] 0.071 | duvelisib -0.045 | tozasertib -0.056 | [2] -0.049

CBX8 (UniProt Q9HC52)
inactive: [4] 0.291 | duvelisib 0.093 | [2] 0.175 | ispinesib 0.028

CD276 (UniProt Q5ZPR3)
inactive: crizotinib 0.151 | gandotinib -0.12 | doramapimod 0.02

CD164 (UniProt Q04900)
inactive: [3] -0.229 | [1] -0.512 | [4] -0.189 | gandotinib -0.05 | ispinesib 0.033

CCDC28B (UniProt Q9BUN5)
inactive: [3] -0.158 | gandotinib -0.117 | tozasertib 0.023

CD99L2 isoform 5 (UniProt Q8TCZ2)
inactive: crizotinib 0.044 | [1] 0.017 | [4] 0.035 | duvelisib 0.014 | gandotinib -0.152 | tozasertib 0.035 | [2] 0.016 | doramapimod 0.037

CBX3 (UniProt B8ZZ43)
inactive: duvelisib 0.207 | [2] -0.315

CD109 (UniProt Q6YHK3)
inactive: duvelisib -0.154 | gandotinib -0.331 | [2] -0.369

CCDC82 (UniProt Q8N4S0)
inactive: crizotinib 0.148 | [1] -0.174 | [4] 0.015 | [2] -0.119 | doramapimod -0.165 | ispinesib -0.026

CCDC71L isoform 2 (UniProt Q8N9Z2)
inactive: [3] 0.015 | [1] 0.15 | [4] 0.003 | tozasertib 0.032

CCDC175 (UniProt P0C221)
inactive: crizotinib 0.011 | [4] 0.021 | duvelisib 0.03 | gandotinib -0.049 | [2] 0.064 | doramapimod 0.043 | ispinesib -0.101

CCDC66 (UniProt A2RUB6)
inactive: [1] 0.026 | gandotinib -0.004

CCND3 (UniProt P30281)
inactive: [1] -0.271 | [4] 0.096 | gandotinib -0.027 | [2] 0.058 | ispinesib -0.116

CD37 (UniProt P11049)
inactive: duvelisib 0.058 | gandotinib -0.114 | tozasertib -0.093 | [2] 0.075

CD44 (UniProt P16070)
inactive: [3] 0.065 | [4] 0.084 | duvelisib -0.049 | tozasertib -0.03 | [2] -0.02

CCND2 (UniProt P30279)
inactive: [4] -0.048

CCNT2 (UniProt O60583)
inactive: [3] -0.226 | [1] -0.148 | gandotinib -0.065 | [2] 0.047 | ispinesib -0.147

CAV1 (UniProt F8WDM7)
inactive: [4] 0.51

CDC25A (UniProt P30304)
inactive: [3] 0.013 | [1] 0.149 | doramapimod -0.12

CCDC102A (UniProt Q96A19)
inactive: [1] 0.076 | [4] -0.296 | gandotinib -0.086

CCND1 (UniProt P24385)
inactive: [3] 0.146 | ispinesib -0.124

CD82 (UniProt P27701)
inactive: [3] -0.037 | [1] -0.136 | gandotinib 0.069 | ispinesib 0.195

CD46 (UniProt P15529)
inactive: [3] -0.088 | duvelisib 0.097 | [2] -0.195

CCDC85B (UniProt Q15834)
inactive: [3] -0.239 | [4] 0.378 | duvelisib 0.164 | gandotinib -0.157 | tozasertib -0.059 | [2] 0.046

CCNDBP1 (UniProt O95273)
inactive: [3] 0.016 | [4] 0.06 | gandotinib -0.066 | [2] 0.043 | ispinesib -0.029

CCDC186 (UniProt Q7Z3E2)
inactive: [3] 0.002 | duvelisib 0.009 | gandotinib 0.074 | [2] -0.057

Two records drawn at random from those above:
CCDC85B (UniProt Q15834)
inactive: [3] -0.239 | [4] 0.378 | duvelisib 0.164 | gandotinib -0.157 | tozasertib -0.059 | [2] 0.046

CD46 (UniProt P15529)
inactive: [3] -0.088 | duvelisib 0.097 | [2] -0.195

Further entries

CDADC1 (UniProt Q9BWV3)
inactive: crizotinib 0.147 | doramapimod -0.04

CASK (UniProt O14936)
inactive: [2] -0.039 | doramapimod 0.034
